The supplement of paper PMC7661543
± gives the standard deviation of the averaged measurements. The effect of the compound repeats well; differences between the knockouts mostly do not.

System: HCC-38
Assay: relative cell number vs DMSO control (72 h) (% of DMSO); higher = less growth inhibition (more cells)
Procedure: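 QMAP-Seq: a pool of 5 breast cancer cell lines (ZR-75-1, SKBR3, HCC-38, MDA-MB-231, BT-20), each carrying 12 doxycycline-inducible Cas9 sgRNA perturbations (11 knockouts plus non-targeting sgNT), was treated with compounds for 72 h at four 10-fold doses (10 nM-10 uM or 1 nM-1 uM range). Barcodes were amplified and sequenced, and cell number was interpolated from 293T spike-in standard curves. The result is expressed as % of the median of DMSO wells. Two biological replicates.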

Cc1sc2c(c1C)C(c1ccc(Cl)cc1)=N[C@@H](CC(=O)OC(C)(C)C)c1nnc(C)n1-2 [(+)-JQ1]
Details	relative cell number
sgRNA knockout: sgATF3, 10 nM	102 ± 10
sgRNA knockout: sgATF3, 100 nM	118 ± 38
sgRNA knockout: sgATF3, 1000 nM	91.2 ± 7.5
sgRNA knockout: sgATF3, 10000 nM	65.2 ± 5.3
sgRNA knockout: sgATF4, 10 nM	103 ± 2.8
sgRNA knockout: sgATF4, 100 nM	114 ± 42
sgRNA knockout: sgATF4, 1000 nM	87 ± 10
sgRNA knockout: sgATF4, 10000 nM	69.7 ± 0.95
sgRNA knockout: sgATF6, 10 nM	94.5 ± 11
sgRNA knockout: sgATF6, 100 nM	121 ± 6.6
sgRNA knockout: sgATF6, 1000 nM	99.16 ± 0.2
sgRNA knockout: sgATF6, 10000 nM	53.1 ± 9.2
sgRNA knockout: sgATG7, 10 nM	102 ± 10
sgRNA knockout: sgATG7, 100 nM	107 ± 17
sgRNA knockout: sgATG7, 1000 nM	88.8 ± 2.9
sgRNA knockout: sgATG7, 10000 nM	65.7 ± 0.77
sgRNA knockout: sgERN1, 10 nM	104 ± 4.5
sgRNA knockout: sgERN1, 100 nM	117 ± 29
sgRNA knockout: sgERN1, 1000 nM	98.3 ± 14
sgRNA knockout: sgERN1, 10000 nM	69.7 ± 6.6
sgRNA knockout: sgHSF1, 10 nM	90.8 ± 22
sgRNA knockout: sgHSF1, 100 nM	96.3 ± 7.5
sgRNA knockout: sgHSF1, 1000 nM	98.9 ± 3.9
sgRNA knockout: sgHSF1, 10000 nM	74.2 ± 4.3
sgRNA knockout: sgHSF2, 10 nM	107 ± 1.2
sgRNA knockout: sgHSF2, 100 nM	122 ± 42
sgRNA knockout: sgHSF2, 1000 nM	87.9 ± 10
sgRNA knockout: sgHSF2, 10000 nM	64.5 ± 2.2
sgRNA knockout: sgKEAP1, 10 nM	108 ± 30
sgRNA knockout: sgKEAP1, 100 nM	120.1 ± 0.39
sgRNA knockout: sgKEAP1, 1000 nM	85.9 ± 3.1
sgRNA knockout: sgKEAP1, 10000 nM	56.7 ± 1
sgRNA knockout: sgNFE2L2, 10 nM	102 ± 5.2
sgRNA knockout: sgNFE2L2, 100 nM	106 ± 31
sgRNA knockout: sgNFE2L2, 1000 nM	89.4 ± 1.9
sgRNA knockout: sgNFE2L2, 10000 nM	75.2 ± 6.3
sgRNA knockout: sgSLC35F2, 10 nM	102 ± 6.4
sgRNA knockout: sgSLC35F2, 100 nM	126 ± 36
sgRNA knockout: sgSLC35F2, 1000 nM	85.7 ± 8.8
sgRNA knockout: sgSLC35F2, 10000 nM	62.4 ± 4.5
sgRNA knockout: sgXBP1, 10 nM	99.6 ± 9.8
sgRNA knockout: sgXBP1, 100 nM	116 ± 32
sgRNA knockout: sgXBP1, 1000 nM	86.8 ± 6.3
sgRNA knockout: sgXBP1, 10000 nM	69.2 ± 3

CN(C)CC[C@H](CSc1ccccc1)Nc1ccc(S(=O)(=O)NC(=O)c2ccc(N3CCN(Cc4ccccc4-c4ccc(Cl)cc4)CC3)cc2)cc1[N+](=O)[O-] [ABT737]
Details	relative cell number
sgRNA knockout: sgATF3, 10 nM	111 ± 10
sgRNA knockout: sgATF3, 100 nM	83.5 ± 2
sgRNA knockout: sgATF3, 1000 nM	94.6 ± 4
sgRNA knockout: sgATF3, 10000 nM	50.4 ± 8.6
sgRNA knockout: sgATF4, 10 nM	97.1 ± 18
sgRNA knockout: sgATF4, 100 nM	90.4 ± 26
sgRNA knockout: sgATF4, 1000 nM	86.5 ± 5.7
sgRNA knockout: sgATF4, 10000 nM	80.9 ± 24
sgRNA knockout: sgATF6, 10 nM	117 ± 2.8
sgRNA knockout: sgATF6, 100 nM	91.7 ± 1.7
sgRNA knockout: sgATF6, 1000 nM	82.7 ± 1.3
sgRNA knockout: sgATF6, 10000 nM	50.1 ± 1.7
sgRNA knockout: sgATG7, 10 nM	97.8 ± 3.7
sgRNA knockout: sgATG7, 100 nM	89.8 ± 16
sgRNA knockout: sgATG7, 1000 nM	86.038 ± 0.0059
sgRNA knockout: sgATG7, 10000 nM	50.2 ± 5.8
sgRNA knockout: sgERN1, 10 nM	105 ± 11
sgRNA knockout: sgERN1, 100 nM	92.8 ± 19
sgRNA knockout: sgERN1, 1000 nM	91.4 ± 6.9
sgRNA knockout: sgERN1, 10000 nM	61.6 ± 0.63
sgRNA knockout: sgHSF1, 10 nM	106 ± 22
sgRNA knockout: sgHSF1, 100 nM	110.6 ± 1.1
sgRNA knockout: sgHSF1, 1000 nM	93.7 ± 7.8
sgRNA knockout: sgHSF1, 10000 nM	49.5 ± 1.4
sgRNA knockout: sgHSF2, 10 nM	110 ± 2.9
sgRNA knockout: sgHSF2, 100 nM	95.4 ± 19
sgRNA knockout: sgHSF2, 1000 nM	101 ± 2.8
sgRNA knockout: sgHSF2, 10000 nM	54.1 ± 2.3
sgRNA knockout: sgKEAP1, 10 nM	98.1 ± 9.6
sgRNA knockout: sgKEAP1, 100 nM	112 ± 34
sgRNA knockout: sgKEAP1, 1000 nM	115 ± 8.1
sgRNA knockout: sgKEAP1, 10000 nM	50.7 ± 16
sgRNA knockout: sgNFE2L2, 10 nM	96 ± 9.3
sgRNA knockout: sgNFE2L2, 100 nM	87 ± 23
sgRNA knockout: sgNFE2L2, 1000 nM	84.9 ± 4.8
sgRNA knockout: sgNFE2L2, 10000 nM	67.9 ± 23
sgRNA knockout: sgSLC35F2, 10 nM	96.9 ± 7
sgRNA knockout: sgSLC35F2, 100 nM	92.5 ± 8.6
sgRNA knockout: sgSLC35F2, 1000 nM	77.27 ± 0.29
sgRNA knockout: sgSLC35F2, 10000 nM	60.5 ± 5.3
sgRNA knockout: sgXBP1, 10 nM	95.5 ± 6.7
sgRNA knockout: sgXBP1, 100 nM	90.2 ± 24
sgRNA knockout: sgXBP1, 1000 nM	82.5 ± 0.98
sgRNA knockout: sgXBP1, 10000 nM	52.7 ± 9.5

Clc1ccc(C2(c3ccc(-c4cn[nH]c4)cc3)CCNCC2)cc1 [AT7867]
Details	relative cell number
sgRNA knockout: sgATF3, 10 nM	85.2 ± 2.9
sgRNA knockout: sgATF3, 100 nM	73.5 ± 10
sgRNA knockout: sgATF3, 1000 nM	42 ± 4.1
sgRNA knockout: sgATF3, 10000 nM	51.4 ± 3.9
sgRNA knockout: sgATF4, 10 nM	86.31 ± 0.2
sgRNA knockout: sgATF4, 100 nM	66.9 ± 9.8
sgRNA knockout: sgATF4, 1000 nM	46.1 ± 3.4
sgRNA knockout: sgATF4, 10000 nM	51.5 ± 4
sgRNA knockout: sgATF6, 10 nM	83.1 ± 5.6
sgRNA knockout: sgATF6, 100 nM	73.6 ± 11
sgRNA knockout: sgATF6, 1000 nM	35.5 ± 16
sgRNA knockout: sgATF6, 10000 nM	48.5 ± 9
sgRNA knockout: sgATG7, 10 nM	87.4 ± 10
sgRNA knockout: sgATG7, 100 nM	69.5 ± 8
sgRNA knockout: sgATG7, 1000 nM	46.2 ± 10
sgRNA knockout: sgATG7, 10000 nM	51 ± 6.9
sgRNA knockout: sgERN1, 10 nM	91.1 ± 3
sgRNA knockout: sgERN1, 100 nM	65.2 ± 6.7
sgRNA knockout: sgERN1, 1000 nM	46.7 ± 4.1
sgRNA knockout: sgERN1, 10000 nM	55 ± 1.9
sgRNA knockout: sgHSF1, 10 nM	84.7 ± 4.7
sgRNA knockout: sgHSF1, 100 nM	72.27 ± 0.11
sgRNA knockout: sgHSF1, 1000 nM	35.6 ± 4.5
sgRNA knockout: sgHSF1, 10000 nM	53.7 ± 11
sgRNA knockout: sgHSF2, 10 nM	84.7 ± 3
sgRNA knockout: sgHSF2, 100 nM	71.4 ± 1.1
sgRNA knockout: sgHSF2, 1000 nM	44 ± 2.3
sgRNA knockout: sgHSF2, 10000 nM	59 ± 1.9
sgRNA knockout: sgKEAP1, 10 nM	93.7 ± 12
sgRNA knockout: sgKEAP1, 100 nM	67 ± 12
sgRNA knockout: sgKEAP1, 1000 nM	48.3 ± 0.79
sgRNA knockout: sgKEAP1, 10000 nM	37.1 ± 2.1
sgRNA knockout: sgNFE2L2, 10 nM	89 ± 11
sgRNA knockout: sgNFE2L2, 100 nM	67.3 ± 12
sgRNA knockout: sgNFE2L2, 1000 nM	42.3 ± 5.2
sgRNA knockout: sgNFE2L2, 10000 nM	54.9 ± 1.2
sgRNA knockout: sgSLC35F2, 10 nM	89.8 ± 4.1
sgRNA knockout: sgSLC35F2, 100 nM	70.4 ± 1.6
sgRNA knockout: sgSLC35F2, 1000 nM	43.1 ± 2.2
sgRNA knockout: sgSLC35F2, 10000 nM	52 ± 5.4
sgRNA knockout: sgXBP1, 10 nM	89.9 ± 2.7
sgRNA knockout: sgXBP1, 100 nM	73 ± 9.1
sgRNA knockout: sgXBP1, 1000 nM	47.1 ± 5
sgRNA knockout: sgXBP1, 10000 nM	52.5 ± 2.4
